Results on 1 sequence are retold here after paper PMC9409194.

Protein sequences, listed by entry. Tags and fused reporters are not part of them. Residues count along the entry.
UniProt O60479, 129-188: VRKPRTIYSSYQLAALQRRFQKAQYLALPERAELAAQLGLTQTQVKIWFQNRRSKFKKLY

The data set has as its target Dlx3-HD (human) (UniProt O60479). Description: NMR (1H/15N-HSQC CSP). Conditions: 500 mM NaCl, 35 C, affinity much weaker than at 100 and 250 mM, 10 mM sodium phosphate pH 6.0, 100, 250 or 500 mM NaCl, 90% H2O/10% D2O, recombinant protein, protein details: Ni-NTA purified (His-tag implied).

Construct, isoform or probe ends are uncertain for at least one entry. A weaker result is weaker than the reference pair of the same experiment.

Take CGTAATTGCC (double strand) [dlxDNA]: the binding result is on record as “binds more weakly”.
